Reference: paper PMC8599840
These are yes or no findings as the source states them, for the method shown. Binding seen in cells or lysates may run through a third protein. Some binding calls cover weakened binding; strength is not graded here.

Chains of the proteins cited; added tags and fusions are not shown.
UniProt P29351: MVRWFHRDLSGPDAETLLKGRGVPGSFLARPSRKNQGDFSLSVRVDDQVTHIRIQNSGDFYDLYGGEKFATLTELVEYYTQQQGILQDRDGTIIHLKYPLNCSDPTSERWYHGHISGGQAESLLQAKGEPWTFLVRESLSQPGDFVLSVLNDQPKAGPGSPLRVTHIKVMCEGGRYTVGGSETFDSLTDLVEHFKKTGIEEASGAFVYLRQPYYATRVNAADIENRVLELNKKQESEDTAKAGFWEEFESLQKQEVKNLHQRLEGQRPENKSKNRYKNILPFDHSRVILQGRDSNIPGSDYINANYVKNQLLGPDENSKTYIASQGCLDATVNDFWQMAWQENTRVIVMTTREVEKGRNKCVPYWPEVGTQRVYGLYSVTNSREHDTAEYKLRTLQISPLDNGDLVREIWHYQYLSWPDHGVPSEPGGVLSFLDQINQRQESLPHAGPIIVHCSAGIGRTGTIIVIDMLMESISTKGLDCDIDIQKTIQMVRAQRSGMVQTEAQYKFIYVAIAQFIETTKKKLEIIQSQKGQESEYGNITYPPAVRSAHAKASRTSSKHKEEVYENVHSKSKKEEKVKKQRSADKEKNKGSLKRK

T1: IL-10 receptor α (mouse (endogenous in J774A.1)) (UniProt Q61727)
T1 sequence: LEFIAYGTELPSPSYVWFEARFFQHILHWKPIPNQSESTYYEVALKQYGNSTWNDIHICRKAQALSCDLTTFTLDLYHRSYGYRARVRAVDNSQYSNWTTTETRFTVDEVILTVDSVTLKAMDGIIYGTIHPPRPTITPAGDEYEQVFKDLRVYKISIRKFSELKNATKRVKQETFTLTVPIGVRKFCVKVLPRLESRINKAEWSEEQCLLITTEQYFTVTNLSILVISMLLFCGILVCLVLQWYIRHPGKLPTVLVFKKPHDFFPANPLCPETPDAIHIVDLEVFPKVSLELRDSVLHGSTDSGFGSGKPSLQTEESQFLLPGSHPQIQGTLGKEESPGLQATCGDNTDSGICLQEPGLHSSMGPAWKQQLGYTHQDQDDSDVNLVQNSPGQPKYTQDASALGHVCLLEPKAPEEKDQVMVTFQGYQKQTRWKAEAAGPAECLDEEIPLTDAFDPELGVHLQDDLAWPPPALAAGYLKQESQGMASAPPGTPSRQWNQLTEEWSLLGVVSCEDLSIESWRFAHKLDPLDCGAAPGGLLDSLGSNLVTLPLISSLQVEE

B1: Src homology-2-containing inositol 5'-phosphatase 1 (enzyme, UniProt Q9ES52 1-1191)
chain: MPAMVPGWNHGNITRSKAEELLSRAGKDGSFLVRASESIPRAYALCVLFRNCVYTYRILPNEDDKFTVQASEGVPMRFFTKLDQLIDFYKKENMGLVTHLQYPVPLEEEDAIDEAEEDTVESVMSPPELPPRNIPMSAGPSEAKDLPLATENPRAPEVTRLSLSETLFQRLQSMDTSGLPEEHLKAIQDYLSTQLLLDSDFLKTGSSNLPHLKKLMSLLCKELHGEVIRTLPSLESLQRLFDQQLSPGLRPRPQVPGEASPITMVAKLSQLTSLLSSIEDKVKSLLHEGSESTNRRSLIPPVTFEVKSESLGIPQKMHLKVDVESGKLIVKKSKDGSEDKFYSHKKILQLIKSQKFLNKLVILVETEKEKILRKEYVFADSKKREGFCQLLQQMKNKHSEQPEPDMITIFIGTWNMGNAPPPKKITSWFLSKGQGKTRDDSADYIPHDIYVIGTQEDPLGEKEWLELLRHSLQEVTSMTFKTVAIHTLWNIRIVVLAKPEHENRISHICTDNVKTGIANTLGNKGAVGVSFMFNGTSLGFVNSHLTSGSEKKLRRNQNYMNILRFLALGDKKLSPFNITHRFTHLFWLGDLNYRVELPTWEAEAIIQKIKQQQYSDLLAHDQLLLERKDQKVFLHFEEEEITFAPTYRFERLTRDKYAYTKQKATGMKYNLPSWCDRVLWKSYPLVHVVCQSYGSTSDIMTSDHSPVFATFEAGVTSQFVSKNGPGTVDSQGQIEFLACYATLKTKSQTKFYLEFHSSCLESFVKSQEGENEEGSEGELVVRFGETLPKLKPIISDPEYLLDQHILISIKSSDSDESYGEGCIALRLETTEAQHPIYTPLTHHGEMTGHFRGEIKLQTSQGKMREKLYDFVKTERDESSGMKCLKNLTSHDPMRQWEPSGRVPACGVSSLNEMINPNYIGMGPFGQPLHGKSTLSPDQQLTAWSYDQLPKDSSLGPGRGEGPPTPPSQPPLSPKKFSSSTANRGPCPRVQEARPGDLGKVEALLQEDLLLTKPEMFENPLYGSVSSFPKLVPRKEQESPKMLRKEPPPCPDPGISSPSIVLPKAQEVESVKGTSKQAPVPVLGPTPRIRSFTCSSSAEGRMTSGDKSQGKPKASASSQAPVPVKRPVKPSRSEMSQQTTPIPAPRPPLPVKSPAVLQLQHSKGRDYRDNTELPHHGKHRQEEGLLGRTAMQ
B2: protein tyrosine phosphatase 1B (enzyme, UniProt P35821 1-432)
chain: MEMEKEFEEIDKAGNWAAIYQDIRHEASDFPCKVAKLPKNKNRNRYRDVSPFDHSRIKLHQEDNDYINASLIKMEEAQRSYILTQGPLPNTCGHFWEMVWEQKSRGVVMLNRIMEKGSLKCAQYWPQQEEKEMVFDDTGLKLTLISEDVKSYYTVRQLELENLTTKETREILHFHYTTWPDFGVPESPASFLNFLFKVRESGSLSLEHGPIVVHCSAGIGRSGTFCLADTCLLLMDKRKDPSSVDIKKVLLEMRRFRMGLIQTADQLRFSYLAVIEGAKFIMGDSSVQDQWKELSREDLDLPPEHVPPPPRPPKRTLEPHNGKCKELFSSHQWVSEETCGDEDSLAREEGRAQSSAMHSVSSMSPDTEVRRRMVGGGLQSAQASVPTEEELSSTEEEHKAHWPSHWKPFLVNVCMATLLATGAYLCYRVCFH

biological target: T1, IL-10 receptor α (mouse (endogenous in J774A.1)); test: co-IP; J774A.1 cells treated with or without mIL-10 (10 ng/mL) and S1PC (100, 300, 1000 µM) for 1 h; RIPA lysates incubated 1 h at RT with anti-IL-10Rα antibody on Dynabeads Protein G; washed 3 times with PBS; immunoblot

binding, binds:
SH2-containing protein tyrosine phosphatase-1 (from UniProt P29351 1-595) (enzyme)
B1
B2
